Results: doi:10.1101/2021.01.29.428839
Results are given in words; binding and its absence hold for the method and conditions named. Binding seen in cells or lysates may run through a third protein. Some results given as binding are weak or reduced against the parent protein; the word gives no strength. For some assays here: Where a sequence is shown, tags or fusion partners need not be part of it.

The chains behind the UniProt entries cited, without tags or fusion partners. Residues count along the entry.
UniProt C0LGR3, residues 25-1091: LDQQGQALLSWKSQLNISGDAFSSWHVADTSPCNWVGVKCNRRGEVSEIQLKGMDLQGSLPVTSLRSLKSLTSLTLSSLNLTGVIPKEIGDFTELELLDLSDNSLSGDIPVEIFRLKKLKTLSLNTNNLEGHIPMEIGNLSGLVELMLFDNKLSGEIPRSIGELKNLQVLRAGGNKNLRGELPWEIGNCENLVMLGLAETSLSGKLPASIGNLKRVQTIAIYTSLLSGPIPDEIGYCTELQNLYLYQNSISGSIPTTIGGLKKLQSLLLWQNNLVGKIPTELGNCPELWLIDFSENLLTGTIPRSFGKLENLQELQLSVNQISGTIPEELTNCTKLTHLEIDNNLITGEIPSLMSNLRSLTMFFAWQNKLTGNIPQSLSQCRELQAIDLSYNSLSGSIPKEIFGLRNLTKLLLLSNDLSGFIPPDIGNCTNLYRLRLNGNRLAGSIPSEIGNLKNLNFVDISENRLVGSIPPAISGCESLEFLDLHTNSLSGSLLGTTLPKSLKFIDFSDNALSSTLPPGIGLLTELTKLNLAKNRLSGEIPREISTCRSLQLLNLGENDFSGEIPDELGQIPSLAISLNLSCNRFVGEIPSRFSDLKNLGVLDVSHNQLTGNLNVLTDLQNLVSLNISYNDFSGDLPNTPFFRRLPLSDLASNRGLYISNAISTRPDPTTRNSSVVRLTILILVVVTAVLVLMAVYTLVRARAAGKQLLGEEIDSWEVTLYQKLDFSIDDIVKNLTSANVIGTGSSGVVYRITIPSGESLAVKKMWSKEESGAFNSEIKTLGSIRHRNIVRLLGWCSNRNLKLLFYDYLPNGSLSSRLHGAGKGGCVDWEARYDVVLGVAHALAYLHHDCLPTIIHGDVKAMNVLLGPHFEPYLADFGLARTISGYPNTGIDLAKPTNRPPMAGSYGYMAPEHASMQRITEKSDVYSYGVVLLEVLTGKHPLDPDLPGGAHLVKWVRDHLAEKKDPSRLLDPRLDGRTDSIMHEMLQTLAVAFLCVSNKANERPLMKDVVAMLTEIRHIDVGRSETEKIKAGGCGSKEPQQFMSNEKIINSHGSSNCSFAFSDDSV
UniProt Q9FL28, residues 24-1173: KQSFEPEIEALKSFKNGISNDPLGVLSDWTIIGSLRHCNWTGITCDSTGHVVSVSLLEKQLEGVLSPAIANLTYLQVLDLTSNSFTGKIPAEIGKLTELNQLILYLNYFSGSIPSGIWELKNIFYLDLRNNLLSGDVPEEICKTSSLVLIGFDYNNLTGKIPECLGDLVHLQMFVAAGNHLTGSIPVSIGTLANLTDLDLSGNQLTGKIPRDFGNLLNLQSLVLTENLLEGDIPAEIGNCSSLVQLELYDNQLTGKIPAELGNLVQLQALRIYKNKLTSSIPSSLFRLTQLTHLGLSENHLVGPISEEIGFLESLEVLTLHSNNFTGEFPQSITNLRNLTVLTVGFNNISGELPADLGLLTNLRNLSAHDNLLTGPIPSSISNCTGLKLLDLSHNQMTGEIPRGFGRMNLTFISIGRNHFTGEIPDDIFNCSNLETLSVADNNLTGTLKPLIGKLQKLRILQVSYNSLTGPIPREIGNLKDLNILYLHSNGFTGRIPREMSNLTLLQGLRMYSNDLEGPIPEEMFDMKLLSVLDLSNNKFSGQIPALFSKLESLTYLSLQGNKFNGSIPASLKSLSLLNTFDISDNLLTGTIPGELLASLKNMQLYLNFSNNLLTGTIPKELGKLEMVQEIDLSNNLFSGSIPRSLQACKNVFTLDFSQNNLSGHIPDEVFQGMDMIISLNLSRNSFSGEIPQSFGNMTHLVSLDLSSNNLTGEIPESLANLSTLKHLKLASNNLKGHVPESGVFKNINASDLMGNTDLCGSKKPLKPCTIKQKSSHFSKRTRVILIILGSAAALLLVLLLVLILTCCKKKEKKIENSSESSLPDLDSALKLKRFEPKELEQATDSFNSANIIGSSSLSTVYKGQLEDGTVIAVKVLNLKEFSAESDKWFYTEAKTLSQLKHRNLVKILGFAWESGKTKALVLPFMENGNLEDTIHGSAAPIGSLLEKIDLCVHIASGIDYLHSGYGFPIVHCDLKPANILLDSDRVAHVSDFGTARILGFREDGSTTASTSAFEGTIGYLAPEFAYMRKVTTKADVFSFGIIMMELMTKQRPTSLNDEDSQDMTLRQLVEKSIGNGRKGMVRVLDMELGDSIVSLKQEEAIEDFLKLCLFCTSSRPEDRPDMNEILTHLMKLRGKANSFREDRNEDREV

Assays:
[1] = target: RGI3-GFP (Arabidopsis thaliana (Col-0 cDNA)) (UniProt C0LGR3); experiment: co-IP
[2] = target: T1, CLV1-GFP (Arabidopsis thaliana (Col-0 cDNA)) (UniProt Q9SYQ8); experiment: co-IP
T1 sequence: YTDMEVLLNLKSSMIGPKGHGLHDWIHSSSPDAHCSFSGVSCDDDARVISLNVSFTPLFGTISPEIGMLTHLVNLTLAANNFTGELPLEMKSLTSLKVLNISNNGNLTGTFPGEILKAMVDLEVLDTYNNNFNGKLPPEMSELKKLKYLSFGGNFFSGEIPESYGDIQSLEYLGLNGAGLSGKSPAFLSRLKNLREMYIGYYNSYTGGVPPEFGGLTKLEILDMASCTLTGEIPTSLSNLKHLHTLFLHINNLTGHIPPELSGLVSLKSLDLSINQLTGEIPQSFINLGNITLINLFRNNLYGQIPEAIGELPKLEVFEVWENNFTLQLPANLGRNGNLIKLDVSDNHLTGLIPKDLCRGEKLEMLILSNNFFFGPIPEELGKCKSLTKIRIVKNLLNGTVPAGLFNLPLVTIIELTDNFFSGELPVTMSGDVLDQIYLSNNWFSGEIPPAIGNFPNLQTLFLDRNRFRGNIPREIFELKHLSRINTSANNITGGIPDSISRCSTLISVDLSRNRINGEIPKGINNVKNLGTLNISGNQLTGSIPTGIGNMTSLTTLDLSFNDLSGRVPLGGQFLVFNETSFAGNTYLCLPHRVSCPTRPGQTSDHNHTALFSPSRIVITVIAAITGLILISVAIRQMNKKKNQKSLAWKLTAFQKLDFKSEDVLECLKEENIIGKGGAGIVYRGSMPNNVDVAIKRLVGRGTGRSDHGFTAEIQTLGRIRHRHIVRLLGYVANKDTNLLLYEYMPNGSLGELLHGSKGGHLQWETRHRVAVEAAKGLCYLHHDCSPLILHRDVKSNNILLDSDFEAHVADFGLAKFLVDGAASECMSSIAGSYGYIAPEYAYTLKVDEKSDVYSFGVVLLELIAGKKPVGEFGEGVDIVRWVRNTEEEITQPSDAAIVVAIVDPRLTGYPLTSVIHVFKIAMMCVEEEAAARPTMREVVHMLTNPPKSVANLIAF

FLS2-HA (from UniProt Q9FL28 24-1173) (receptor)
binding [1]: binds
binding [2]: no binding
